From US20220048961A1, “TRANSFERRIN RECEPTOR TARGETING PEPTIDES” (FRED HUTCHINSON CANCER RESEARCH CENTER, priority 2018, published 2022)
At least one compound was matched to its structure with a doubt left.

Tested on: neurotensin receptor (CRE-driven luciferase)
Assay: CRE-luciferase reporter mice, whole-animal brain luminescence (IVIS)
Assay type: in vivo
Details: 1.68 mg rolipram and 0.84 mg forskolin given together IP, luciferin four hours after, FIG. 31

Structure (SMILES): C=C[C@@]1(C)CC(=O)[C@]2(O)[C@@]3(C)[C@@H](O)CCC(C)(C)[C@@H]3[C@H](O)[C@H](OC(C)=O)[C@@]2(C)O1 [forskolin]
- CRE-driven luciferase induction (brain luminescence), positive control: high levels of luminescence from the animal's brain
